The source of these data is patent publication US20220204643A1.

By UniProt entry, the sequences of proteins in these tests, tags left out. Where a name states a change or a piece, a line headed by the entry shows the natural chain unless it says otherwise.
UniProt Q2MKA7: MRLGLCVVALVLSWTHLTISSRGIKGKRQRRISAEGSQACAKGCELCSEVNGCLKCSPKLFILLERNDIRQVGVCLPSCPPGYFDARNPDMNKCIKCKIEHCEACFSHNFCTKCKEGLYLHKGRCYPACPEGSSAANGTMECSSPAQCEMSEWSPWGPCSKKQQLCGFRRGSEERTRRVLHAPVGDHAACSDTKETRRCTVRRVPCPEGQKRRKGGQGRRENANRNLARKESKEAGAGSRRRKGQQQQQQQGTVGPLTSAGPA
UniProt P19793: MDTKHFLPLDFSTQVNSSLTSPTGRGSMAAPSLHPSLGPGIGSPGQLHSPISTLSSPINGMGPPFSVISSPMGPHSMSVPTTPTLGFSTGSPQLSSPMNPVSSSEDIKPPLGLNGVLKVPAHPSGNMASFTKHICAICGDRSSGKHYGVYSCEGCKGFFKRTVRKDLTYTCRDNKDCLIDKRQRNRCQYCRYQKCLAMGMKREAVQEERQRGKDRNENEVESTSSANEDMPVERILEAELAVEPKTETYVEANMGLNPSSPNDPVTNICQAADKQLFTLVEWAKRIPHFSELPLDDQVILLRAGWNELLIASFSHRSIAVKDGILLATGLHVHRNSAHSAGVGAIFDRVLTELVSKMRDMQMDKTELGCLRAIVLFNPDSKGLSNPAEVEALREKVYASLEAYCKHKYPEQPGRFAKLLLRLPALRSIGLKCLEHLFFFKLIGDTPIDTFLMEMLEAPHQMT

Like-named read-outs stand apart in the source and are kept apart here. These are yes or no findings as the source states them, for the method shown. Some entries that bind do so weakly or less than the wild type.

Experiment [1] has as its target T1, transmembrane protein 154 (human) (UniProt Q6P9G4).
T1 sequence: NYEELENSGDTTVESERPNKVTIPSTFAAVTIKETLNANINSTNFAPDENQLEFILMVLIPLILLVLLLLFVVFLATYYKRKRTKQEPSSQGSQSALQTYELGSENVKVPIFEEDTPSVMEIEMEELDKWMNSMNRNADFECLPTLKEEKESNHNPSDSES

The target of experiment [2] is ELK2, member of ETS oncogene family, pseudogene 1 (human) [IgG part: P01859].
Experiment [3] has the same target. Kind of experiment: protein array.
In experiment [4] the target is T2, Wnt family member 9b (human) (UniProt O14905).
T2 sequence: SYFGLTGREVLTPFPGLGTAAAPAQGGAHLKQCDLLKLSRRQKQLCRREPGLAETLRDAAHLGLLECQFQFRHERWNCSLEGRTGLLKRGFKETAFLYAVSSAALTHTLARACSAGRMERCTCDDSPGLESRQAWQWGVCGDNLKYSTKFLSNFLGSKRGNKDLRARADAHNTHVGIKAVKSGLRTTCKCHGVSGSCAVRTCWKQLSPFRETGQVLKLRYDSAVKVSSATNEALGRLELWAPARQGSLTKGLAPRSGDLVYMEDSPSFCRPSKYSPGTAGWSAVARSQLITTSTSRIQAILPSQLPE

Experiment [5] has as its target T2, Wnt family member 9b (human). Kind of experiment: protein array.
Experiment [6] addresses T3, serine and arginine rich splicing factor 3, transcript variant 1 (human) (UniProt P84103).
T3 sequence: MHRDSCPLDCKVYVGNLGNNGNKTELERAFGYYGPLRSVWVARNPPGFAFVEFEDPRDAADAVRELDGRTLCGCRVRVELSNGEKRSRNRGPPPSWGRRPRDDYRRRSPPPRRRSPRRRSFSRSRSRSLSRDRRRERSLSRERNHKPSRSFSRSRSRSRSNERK

The target of experiment [7] is T3, serine and arginine rich splicing factor 3, transcript variant 1 (human). Kind of experiment: protein array.
Experiment [8] has as its target T4, hyaluronan binding protein 4 (human) (UniProt Q5JVS0).
T4 sequence: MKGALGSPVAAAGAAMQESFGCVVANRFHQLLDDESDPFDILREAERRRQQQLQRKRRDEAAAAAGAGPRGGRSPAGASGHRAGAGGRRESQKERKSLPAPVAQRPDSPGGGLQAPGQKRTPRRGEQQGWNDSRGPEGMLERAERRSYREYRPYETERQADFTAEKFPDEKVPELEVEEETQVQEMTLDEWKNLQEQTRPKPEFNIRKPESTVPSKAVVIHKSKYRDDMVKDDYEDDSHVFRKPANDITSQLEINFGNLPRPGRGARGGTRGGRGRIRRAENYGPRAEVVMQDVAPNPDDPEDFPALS

The target in experiment [9] is T4, hyaluronan binding protein 4 (human). Kind of experiment: protein array.
For experiment [10], the target named is T5, zinc finger protein 287, transcript variant 2 (human) (UniProt Q9HBT7).
T5 sequence: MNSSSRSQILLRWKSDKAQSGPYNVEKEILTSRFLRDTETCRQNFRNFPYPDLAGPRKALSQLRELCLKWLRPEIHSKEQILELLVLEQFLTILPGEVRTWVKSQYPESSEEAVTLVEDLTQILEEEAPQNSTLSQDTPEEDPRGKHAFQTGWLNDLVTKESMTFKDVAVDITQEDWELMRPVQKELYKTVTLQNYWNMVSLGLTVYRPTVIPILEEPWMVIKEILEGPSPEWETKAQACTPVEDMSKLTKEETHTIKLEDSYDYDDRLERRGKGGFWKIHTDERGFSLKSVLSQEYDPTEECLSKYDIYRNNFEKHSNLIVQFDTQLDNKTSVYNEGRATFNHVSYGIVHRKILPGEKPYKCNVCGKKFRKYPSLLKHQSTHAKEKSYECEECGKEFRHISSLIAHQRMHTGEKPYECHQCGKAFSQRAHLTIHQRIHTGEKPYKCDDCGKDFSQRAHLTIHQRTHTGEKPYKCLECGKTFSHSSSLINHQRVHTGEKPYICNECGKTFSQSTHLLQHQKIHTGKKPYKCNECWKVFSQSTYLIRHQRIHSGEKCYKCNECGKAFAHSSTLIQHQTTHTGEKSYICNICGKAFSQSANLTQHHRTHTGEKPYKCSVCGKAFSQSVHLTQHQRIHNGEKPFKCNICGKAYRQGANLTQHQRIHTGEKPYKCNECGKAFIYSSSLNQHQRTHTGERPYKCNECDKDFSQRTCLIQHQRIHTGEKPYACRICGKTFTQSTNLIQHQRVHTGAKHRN

In experiment [11] the target is T5, zinc finger protein 287, transcript variant 2 (human). Kind of experiment: protein array.
For experiment [12], the target named is R-spondin 1, transcript variant 2 (human) (UniProt Q2MKA7).
Experiment [13] has the same target. Kind of experiment: protein array.
Experiment [14] deals with retinoid X receptor alpha, transcript variant 1 (human) (UniProt P19793). Kind of experiment: protein array.

B1: TBLA1005 (antibody, V domains shown)
VH: QVQLVQSGAEVKKPGASVKISCKTSGYTFTTYYMHWVRQAPGQGLEWMGIINTSGGSTSYAQKFQGRVTMTRDTSTNTVYMELSSLRYEDTAMYYCARGGDGGPQDAFDIWGQGTKVTVSS
VL: SSELTQDPAVSVALGQTVRITCQGDSLRNYYASWFQQKPGQAPVLVIFGKNYRPSGIPDRFSGSNSGNTASLTITGAQAEDEADYYCNSRDRSGYVFGSGTKVTVLG
For the molecule B1, the binding entry in experiment [1] is “binds”.

B2: TLUS1003 (antibody, V domains shown)
VH: QVHLVQSGSEFKKPGASVKISCKTSGYTFTNYAMNWVRQAPGQGLEWVGWINTVTGIPGYAQGFTGRFIISLDTSGRTSYLQINSLQAEDTAVYYCARSGGFGWSRDLDYWGQGTLVTVSS
VL: DIVLTQSPLSLPVTPGEPASISCRSSQSLLHSNGVYYLDWYLLKPGQSPQLVIYMGSSRASGVPDRFSGSGSGTDFRLKISRVEAEDVGIYYCMQALQTPWTFGQGTKVEIKR
In the case of B2, the binding entry in [2] and in experiment [3] was “binds” in each case.

B3: TMEL1017 (antibody, V domains shown)
VH: EVQLVESGGGLVKPGGSLRLSCAASGFTFSNYNMNWVRQAPGKGLEWVSSISSSSSYIYYADSVKGRFTISRDNAKNSLYLQMNSLRAEDTAVYYCARDALDFDWLLSAGGFDYWGQGTLVTVSS
VL: ASALTQPASVSGSPGQSITISCTGTSSDVGGYNYVSWYQQHPGKAPKLMIYEVSNRPSGVSNRFSGSKSGNTASLTISGLQAEDEADYYCSSYTSSSTLVFGGGTKLTVLG
For the molecule B3, the binding entry in experiment [4] and in experiment [5] was “binds” throughout.

B4: TMEL1022 (antibody, V domains shown)
VH: EVQLLESGGGLVHPGGSLRLSCVASGFTFSSYEMTWVRQAPGKGLEWISYISSTGTTTYHADSVRGRFTISRDNAKSSLFLQMNSLRVEDTALYYCARSPAAFGSESYFDSWGQGVLVTVSS
VL: SYVLTQPPSVSVAPGKTATIACGENNIGSYNVNWYQQRPGQAPVLVIHSDSDRPSGISERFSGSNSGNTATLTISRVEAGDEADYYCQVWDTSNDVGVFGGGTKLTVLG
For B4, the binding entry in experiment [6] and in experiment [7] was “binds” in each case.

B5: TBRE1004 (antibody, V domains shown)
VH: QVQLVQSGGEVKKPGASVKVSCKASGYNFTNYGISWVRQAPGQGLEWMGWISAYNGNTNYAQKLQGRVTMTTDTPTSTAYMELRSLRSDDTAVYYCARETAGQLIPFDYWGQGTLVTVSS
VL: PYELTQPPSVSVSPGQTARITCSGDALPKQYAYWYQQKPGQAPVLVIYKDSERPSGIPERFSGSSSGTTVTLTISGVQAEDEADYYCQSADSSDTYVFGGGTKLTVLG
As to B5, the binding entry in experiment [8] and in experiment [9] was “binds” in each case.

B6: TLUA1008 (antibody, V domains shown)
VH: EVHLVESGGGFVQPGGSLRLSCAASGFTFSDHYMDWVRQAPGKGLEWVGRIKNRANSYNTEYAASVRGRFTISRDDSNNSLFLQMNSLTAEDTAVYYCARVKLGASSRVFDVWGQGTMVTVSS
VL: EIVLTQSPGTLSLSPGERATLSCRASQSLSSGYLAWYQQKPGQAPRLLIYGASYRATDIPDRFSGSGSGTDFTLTISRLEPEDFAVYYCQQYDNSPLTFGGGTKVEIKR
Turning to B6, the binding result in experiment [10] and in experiment [11] was “binds” in each case.

B7: TBLA1001 (antibody, V domains shown)
VH: EMQLLQSGGGLVQPGGSLRLSCVASEVTFNTYGMSWVRQAPGKGLEWVSYMSGGGGSIFYADSVKGRFTISRDNSKNTLYLQMNSLRGEDTAVYFCARVTLGSYFYGMDVWGQGTTVTVSS
VL: DIQMTQSPSSLSASVGDRVSITCRASQGVSSYLAWYQKKPGRAPKLLIYSASSLQSGVPSRFSGSGSGTDFTLTITGLQPEDFATYFCQQTNTFPLTFGGGTKVEIKR
On to B7, for which the binding entry in [12] and in experiment [13] was “binds” in each case.

B8: TBRE1032 (antibody, V domains shown)
VH: EVQLVESGGGLVQPGGSLRLSCAASGFTFSSYDFHWVRQPTGKGLEWVSAIGTAGDTLYLDSVKGRFTISRENAKNSLYLQMNSLRAGDTAVYYCARVNWNSDTFDSWGQGTLVTVSS
VL: VSSELTQDPAVSVALGQTVRITCQGDSLRRYYASWYQQKAGQAPILVIYGENNRPSGIPDRFSGSGSGNTASLTITGAQAEDEADYYCDSRDSSGNLVVFGGGTKLTVL
As for B8, the binding result in [8] and in [9] was “binds” throughout.

B9: TBLA1004 (antibody, V domains shown)
VH: QITLKESGPTLVKPTQTLTLTCTFSGFSLSTSGVGVGWIRQPPGKALEWLALIYWDDDKRYSPSLKSRLTITKDTSKNQVVLTMTNMDPVDTATYYCAHRAIVGLFDYWGQGTLVTVSS
VL: PSVLTQPPSASGTPGQRVTISCSGSSSNIGSNYVYWYQQLPGTAPKFLIYRNNQRPSGVPDRFSGSKSGTSASLAISGLRSEDEADYYCAAWEDSLSGPVFGGGTKLTVL
As to B9, the binding result in experiment [14] was “binds”.
